Laboratory results as given in patent US20180161290A1, “Dosage Regimen of Diaryl Sulfide Derivatives” (Novartis AG, priority 2010, published 2018).
At least one structure is not confirmed: it was looked up by name or label, or the drawing left a doubt.

Columns and labels:
healthy subjects = test: Multiple ascending dose study in healthy subjects: blood lymphocyte levels; assay type: in vivo, human; conditions: after treatment discontinuation
Experimental: For example in tests on healthy subjects, the maximum percent decrease (geometric mean, 95% confidence interval) from pre-dose blood lymphocyte levels during once daily dosing of compound A for 14 days (28 days for the 2 mg dose level) in healthy subjects was 39% for 0.3 mg, 65% for 0.6 mg, 74% for 1.2 mg, 83% for 2 mg and 77% for 3 mg. The corresponding reduction in the placebo group was 29%, which may be explained by the normal lymphocyte level variability and the definition of the endpoint.
Multiple ascending doses of compound A were investigated in healthy subjects. 60 subjects in 5 cohorts (12 subjects per cohort) were dosed at 0.3 mg, 0.6 mg, 1.2 mg and 3 mg once daily for 14 days and at 2 mg for 28 days. In each cohort, subjects were randomised between compound A (9 subjects) and placebo (3 subjects).

healthy male volunteers = test: Double blind, placebo controlled, dose titration, once daily multiple oral dose study (Example 2); assay type: in vivo, human
Experimental: A total of 56 healthy male volunteers were enrolled in a double blind, parallel, placebo controlled, dose titration, once daily, multiple oral dose study. 53 (95%) subjects completed the study.
Increasing doses of 2-amino-2-[4-(3-benzyloxyphenylthio)-2-chlorophenyl]ethyl-propane-1,3-diol (Compound A) starting at 0.3 mg o.d. or 0.5 mg o.d. and ending at the maximal therapeutic dose of 2 mg o.d. were administered to the subjects as specified in Table 1 below.
Each subject participated in a maximal 21-day Screening period, a Baseline period (Day −2), Run-in period (Day −1), a 21-day treatment period, 14-day Follow up period (with a Follow up visit on Day 35) and study completion assessments on Day 42. Subjects were assigned to one of the four groups (#1 or #2 dose titration group, placebo- or fixed-dose group) and received the once daily (o.d.) treatment in a double blinded manner.
On Day -1 (Run-in), all subjects received placebo and underwent baseline assessments including 24 hour Holter monitoring. […]
The primary objective of the study was assessed from the estimated ratio, obtained from the model above, between the mean number of bradycardia episodes on each ‘dose increase day’ in each titration regimen versus the mean number of bradycardia episodes on Day 1 in the fixed-dose group, and from the 95% CI for this ratio. […]

## NC(CO)(CO)CCc1ccc(Sc2cccc(OCc3ccccc3)c2)cc1Cl [Compound A, 2-amino-2-[4-(3-benzyloxyphenylthio)-2-chlorophenyl]ethyl-propane-1,3-diol]
Healthy subjects
  return of blood lymphocyte levels to normal (above 1.0×10^9/L): within two weeks after treatment discontinuation
Healthy male volunteers; baseline to Day 21, all active treatment groups
  absolute lymphocyte count (ALC): decreased from baseline to Day 21 in all the active treatment groups
Healthy male volunteers; dose titration groups, Day 42
  ALC levels at the end of study visit: returned to near baseline values
